Measurements: publication PMC6553684
No constants are given. Whether binding was seen depends on the method and setting. In cells and extracts the contact can be indirect. Some entries that bind do so weakly or less than the wild type. For some assays here: Sequences can lack the tags named with a protein.

Chains of the proteins cited; added tags and fusions are not shown.
UniProt Q9XYZ5: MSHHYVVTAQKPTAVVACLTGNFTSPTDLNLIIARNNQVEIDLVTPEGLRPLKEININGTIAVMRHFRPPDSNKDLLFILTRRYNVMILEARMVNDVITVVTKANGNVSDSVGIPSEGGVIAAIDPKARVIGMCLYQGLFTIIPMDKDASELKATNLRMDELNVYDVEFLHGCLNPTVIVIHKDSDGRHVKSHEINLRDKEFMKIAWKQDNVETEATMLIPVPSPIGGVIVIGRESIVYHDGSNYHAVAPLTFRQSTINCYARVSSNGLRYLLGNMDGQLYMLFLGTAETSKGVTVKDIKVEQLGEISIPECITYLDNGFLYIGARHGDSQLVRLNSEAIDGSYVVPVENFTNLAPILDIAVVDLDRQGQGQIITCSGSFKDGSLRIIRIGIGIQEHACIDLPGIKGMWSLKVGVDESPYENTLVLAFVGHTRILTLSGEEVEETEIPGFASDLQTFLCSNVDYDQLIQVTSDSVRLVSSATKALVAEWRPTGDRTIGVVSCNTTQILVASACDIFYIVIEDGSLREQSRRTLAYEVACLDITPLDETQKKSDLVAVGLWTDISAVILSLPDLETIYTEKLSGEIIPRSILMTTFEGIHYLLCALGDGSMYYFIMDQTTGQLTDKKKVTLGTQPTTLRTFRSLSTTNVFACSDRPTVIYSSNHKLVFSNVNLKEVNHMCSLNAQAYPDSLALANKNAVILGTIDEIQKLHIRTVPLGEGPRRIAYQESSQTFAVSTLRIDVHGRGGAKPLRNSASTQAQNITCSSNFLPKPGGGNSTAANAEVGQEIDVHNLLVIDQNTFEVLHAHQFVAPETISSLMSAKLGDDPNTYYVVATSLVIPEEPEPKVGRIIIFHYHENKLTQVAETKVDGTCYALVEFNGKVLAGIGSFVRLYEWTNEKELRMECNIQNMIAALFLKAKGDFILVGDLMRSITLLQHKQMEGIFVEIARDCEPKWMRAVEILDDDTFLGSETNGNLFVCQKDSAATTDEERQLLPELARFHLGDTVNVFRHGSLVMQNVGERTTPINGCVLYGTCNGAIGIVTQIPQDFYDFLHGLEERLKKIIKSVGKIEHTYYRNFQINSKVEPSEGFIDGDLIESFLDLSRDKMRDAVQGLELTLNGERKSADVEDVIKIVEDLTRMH

Columns and labels:
[1] = molecular target: T1, Myc-Wts (Drosophila) (UniProt Q9VA38); experiment: co-IP; S2 cells cotransfected with two differently tagged constructs; IP by one tag, western blot (Fig 4C, 4D, 4E, S4E)
T1 sequence: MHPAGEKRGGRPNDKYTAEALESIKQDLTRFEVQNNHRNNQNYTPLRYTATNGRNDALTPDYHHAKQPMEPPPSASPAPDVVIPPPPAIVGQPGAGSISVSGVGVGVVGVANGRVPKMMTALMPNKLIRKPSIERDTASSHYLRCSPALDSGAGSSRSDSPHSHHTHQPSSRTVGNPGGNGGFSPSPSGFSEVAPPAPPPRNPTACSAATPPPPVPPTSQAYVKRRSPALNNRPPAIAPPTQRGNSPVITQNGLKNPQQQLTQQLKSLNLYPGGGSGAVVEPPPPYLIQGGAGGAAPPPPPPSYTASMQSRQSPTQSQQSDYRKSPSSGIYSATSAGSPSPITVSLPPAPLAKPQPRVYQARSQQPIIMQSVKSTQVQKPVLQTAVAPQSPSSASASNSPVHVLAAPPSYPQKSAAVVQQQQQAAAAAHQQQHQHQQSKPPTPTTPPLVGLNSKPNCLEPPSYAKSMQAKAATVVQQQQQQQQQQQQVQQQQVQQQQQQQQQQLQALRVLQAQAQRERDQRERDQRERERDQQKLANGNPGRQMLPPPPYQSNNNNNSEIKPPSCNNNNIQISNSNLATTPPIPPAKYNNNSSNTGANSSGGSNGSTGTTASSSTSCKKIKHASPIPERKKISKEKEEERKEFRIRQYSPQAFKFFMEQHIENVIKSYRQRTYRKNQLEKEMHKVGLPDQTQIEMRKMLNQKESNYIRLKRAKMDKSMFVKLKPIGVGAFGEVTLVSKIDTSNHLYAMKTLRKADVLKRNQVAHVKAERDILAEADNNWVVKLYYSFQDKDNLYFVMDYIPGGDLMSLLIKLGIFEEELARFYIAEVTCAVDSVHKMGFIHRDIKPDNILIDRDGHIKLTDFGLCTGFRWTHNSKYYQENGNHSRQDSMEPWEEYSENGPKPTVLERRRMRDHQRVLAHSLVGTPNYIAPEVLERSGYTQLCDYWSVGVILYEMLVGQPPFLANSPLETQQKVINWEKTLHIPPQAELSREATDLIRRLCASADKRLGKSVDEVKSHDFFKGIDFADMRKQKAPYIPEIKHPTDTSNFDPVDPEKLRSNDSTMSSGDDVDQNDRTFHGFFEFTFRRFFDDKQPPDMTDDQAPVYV

[2] = molecular target: Venus-Mahj (Drosophila melanogaster) (UniProt Q9W2F2); experiment: co-IP; S2 cells cotransfected with Flag-Cul4, Myc-DDB1 and Venus-Mahj; IP of Flag, Myc or GFP (Venus), western blot; lanes with and without overexpressed Myc-DDB1
[3] = molecular target: T2, Flag-Wts^FL (Drosophila) (UniProt Q9VA38); experiment: co-IP; S2 cells cotransfected with two differently tagged constructs; IP by one tag, western blot (Fig 4C, 4D, 4E, S4E)
T2 sequence: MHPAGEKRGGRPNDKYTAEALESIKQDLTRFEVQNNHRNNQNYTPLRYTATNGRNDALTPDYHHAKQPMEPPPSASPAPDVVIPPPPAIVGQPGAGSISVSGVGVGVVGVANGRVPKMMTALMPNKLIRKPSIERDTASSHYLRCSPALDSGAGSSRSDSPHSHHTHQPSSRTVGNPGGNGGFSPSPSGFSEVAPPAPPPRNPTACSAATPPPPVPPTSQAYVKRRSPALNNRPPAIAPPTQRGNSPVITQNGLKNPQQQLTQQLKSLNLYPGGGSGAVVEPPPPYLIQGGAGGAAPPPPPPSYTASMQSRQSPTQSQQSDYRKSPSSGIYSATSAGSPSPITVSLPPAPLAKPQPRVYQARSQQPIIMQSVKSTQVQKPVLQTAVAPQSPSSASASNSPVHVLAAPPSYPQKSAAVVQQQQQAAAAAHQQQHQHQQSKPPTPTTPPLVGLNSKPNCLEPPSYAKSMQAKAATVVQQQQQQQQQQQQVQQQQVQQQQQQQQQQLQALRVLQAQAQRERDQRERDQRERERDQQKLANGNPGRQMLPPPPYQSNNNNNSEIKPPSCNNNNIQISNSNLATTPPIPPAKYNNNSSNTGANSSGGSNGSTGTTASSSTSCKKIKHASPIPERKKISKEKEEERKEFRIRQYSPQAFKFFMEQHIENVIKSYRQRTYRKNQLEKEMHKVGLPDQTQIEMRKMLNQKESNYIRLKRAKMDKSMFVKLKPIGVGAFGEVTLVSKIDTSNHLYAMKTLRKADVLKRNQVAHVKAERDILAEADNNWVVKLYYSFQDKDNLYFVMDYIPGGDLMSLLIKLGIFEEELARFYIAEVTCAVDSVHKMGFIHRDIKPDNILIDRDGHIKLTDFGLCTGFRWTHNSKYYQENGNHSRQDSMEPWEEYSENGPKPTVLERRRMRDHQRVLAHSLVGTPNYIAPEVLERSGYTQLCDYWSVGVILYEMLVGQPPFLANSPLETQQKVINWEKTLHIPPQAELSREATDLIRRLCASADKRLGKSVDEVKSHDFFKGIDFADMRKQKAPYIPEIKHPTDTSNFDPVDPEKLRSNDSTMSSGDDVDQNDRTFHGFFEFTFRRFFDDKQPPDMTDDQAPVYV

[4] = molecular target: Venus-DDB1 (Drosophila melanogaster) (UniProt Q9XYZ5); experiment: as above
[5] = molecular target: Myc-DDB1 (Drosophila melanogaster) (UniProt Q9XYZ5); experiment: co-IP; S2 cells cotransfected with Flag-Cul4, Myc-DDB1 and Venus-Mahj; IP of Flag, Myc or GFP (Venus), western blot; lanes with and without overexpressed Myc-DDB1
[6] = molecular target: Venus-DDB1 (Drosophila melanogaster) (UniProt Q9XYZ5); experiment: co-IP; S2 cells expressing Venus-DDB1, Myc-Wts and HA-Mahj^C-term; IP of Venus-DDB1, western blot
[7] = molecular target: Myc-Mahj^FL (Drosophila melanogaster) (UniProt Q9W2F2); experiment: co-IP; S2 cells cotransfected with two differently tagged constructs; IP by one tag, western blot (Fig 4C, 4D, 4E, S4E)

Flag-Mahj^FL (from UniProt Q9W2F2 1-1544)
binding [1]: binds

Flag-Mahj^R1307/R1343A (from UniProt Q9W2F2 1-1544)
binding [1]: binds

Flag-Mahj^R1120/1123E (from UniProt Q9W2F2 1-1544)
binding [1]: binds

Myc-DDB1 (from UniProt Q9XYZ5 1-1140)
binding [2]: binds

Myc-Mahj^FL (from UniProt Q9W2F2 1-1544)
binding [3]: binds | binding [4]: binds

Venus-Mahj (from UniProt Q9W2F2 1-1544)
binding [5]: binds

B1: Flag-Mahj^C-term (domain or fragment, UniProt Q9W2F2 1096-1544)
chain: LYEPHKCPDPKPSRLLSSNYNLTSRHARTQAGFNTSRFDRRYVHTHFSPWRSIRSADYEDLEFTCCDLAGKYIIVGTQQGDGRVFNMNDGVEQFFSNCHNFSVDAIKANRAGDLVITSSFWRTPTSILWSIADDEFKLKLRLPDVTYCEFSQTVQDRLLGTQNECATLFDINTGSKVASFTPTIPNLYTKNRATLCRTDELILSDGVLWDVRSGKEIHKFDKFNQCISGVFHPNCLEIIANTEVWDLRTFHLLQTVPVLDQRNCTFSPMHVIYGASLGADRDHDMETTTYDTSFNVLDAYDYSSIATIDVKRNINDLSVSANGSLIAVVEDYSGYESKQETYVKIYAVGVKKSERSEEEDDEEVPESDEDGSDTGSENTFAIGQNLLGFPLLRNLHGSDNDDEDLDEDDDDGEPLDSDDDSDDDDGSDNGDDDGDFDVLEYFDRSSSDD
binding [1]: binds

B2: HA-Mahj^C-term (domain or fragment, UniProt Q9W2F2 1096-1544)
chain: LYEPHKCPDPKPSRLLSSNYNLTSRHARTQAGFNTSRFDRRYVHTHFSPWRSIRSADYEDLEFTCCDLAGKYIIVGTQQGDGRVFNMNDGVEQFFSNCHNFSVDAIKANRAGDLVITSSFWRTPTSILWSIADDEFKLKLRLPDVTYCEFSQTVQDRLLGTQNECATLFDINTGSKVASFTPTIPNLYTKNRATLCRTDELILSDGVLWDVRSGKEIHKFDKFNQCISGVFHPNCLEIIANTEVWDLRTFHLLQTVPVLDQRNCTFSPMHVIYGASLGADRDHDMETTTYDTSFNVLDAYDYSSIATIDVKRNINDLSVSANGSLIAVVEDYSGYESKQETYVKIYAVGVKKSERSEEEDDEEVPESDEDGSDTGSENTFAIGQNLLGFPLLRNLHGSDNDDEDLDEDDDDGEPLDSDDDSDDDDGSDNGDDDGDFDVLEYFDRSSSDD
binding [6]: binds

B3: Myc-Mahj^C-term (domain or fragment, UniProt Q9W2F2 1096-1544)
chain: LYEPHKCPDPKPSRLLSSNYNLTSRHARTQAGFNTSRFDRRYVHTHFSPWRSIRSADYEDLEFTCCDLAGKYIIVGTQQGDGRVFNMNDGVEQFFSNCHNFSVDAIKANRAGDLVITSSFWRTPTSILWSIADDEFKLKLRLPDVTYCEFSQTVQDRLLGTQNECATLFDINTGSKVASFTPTIPNLYTKNRATLCRTDELILSDGVLWDVRSGKEIHKFDKFNQCISGVFHPNCLEIIANTEVWDLRTFHLLQTVPVLDQRNCTFSPMHVIYGASLGADRDHDMETTTYDTSFNVLDAYDYSSIATIDVKRNINDLSVSANGSLIAVVEDYSGYESKQETYVKIYAVGVKKSERSEEEDDEEVPESDEDGSDTGSENTFAIGQNLLGFPLLRNLHGSDNDDEDLDEDDDDGEPLDSDDDSDDDDGSDNGDDDGDFDVLEYFDRSSSDD
binding [4]: binds

B4: Flag-Wts^FL (protein, UniProt Q9VA38 1-1105)
chain: MHPAGEKRGGRPNDKYTAEALESIKQDLTRFEVQNNHRNNQNYTPLRYTATNGRNDALTPDYHHAKQPMEPPPSASPAPDVVIPPPPAIVGQPGAGSISVSGVGVGVVGVANGRVPKMMTALMPNKLIRKPSIERDTASSHYLRCSPALDSGAGSSRSDSPHSHHTHQPSSRTVGNPGGNGGFSPSPSGFSEVAPPAPPPRNPTACSAATPPPPVPPTSQAYVKRRSPALNNRPPAIAPPTQRGNSPVITQNGLKNPQQQLTQQLKSLNLYPGGGSGAVVEPPPPYLIQGGAGGAAPPPPPPSYTASMQSRQSPTQSQQSDYRKSPSSGIYSATSAGSPSPITVSLPPAPLAKPQPRVYQARSQQPIIMQSVKSTQVQKPVLQTAVAPQSPSSASASNSPVHVLAAPPSYPQKSAAVVQQQQQAAAAAHQQQHQHQQSKPPTPTTPPLVGLNSKPNCLEPPSYAKSMQAKAATVVQQQQQQQQQQQQVQQQQVQQQQQQQQQQLQALRVLQAQAQRERDQRERDQRERERDQQKLANGNPGRQMLPPPPYQSNNNNNSEIKPPSCNNNNIQISNSNLATTPPIPPAKYNNNSSNTGANSSGGSNGSTGTTASSSTSCKKIKHASPIPERKKISKEKEEERKEFRIRQYSPQAFKFFMEQHIENVIKSYRQRTYRKNQLEKEMHKVGLPDQTQIEMRKMLNQKESNYIRLKRAKMDKSMFVKLKPIGVGAFGEVTLVSKIDTSNHLYAMKTLRKADVLKRNQVAHVKAERDILAEADNNWVVKLYYSFQDKDNLYFVMDYIPGGDLMSLLIKLGIFEEELARFYIAEVTCAVDSVHKMGFIHRDIKPDNILIDRDGHIKLTDFGLCTGFRWTHNSKYYQENGNHSRQDSMEPWEEYSENGPKPTVLERRRMRDHQRVLAHSLVGTPNYIAPEVLERSGYTQLCDYWSVGVILYEMLVGQPPFLANSPLETQQKVINWEKTLHIPPQAELSREATDLIRRLCASADKRLGKSVDEVKSHDFFKGIDFADMRKQKAPYIPEIKHPTDTSNFDPVDPEKLRSNDSTMSSGDDVDQNDRTFHGFFEFTFRRFFDDKQPPDMTDDQAPVYV
binding [7]: binds

B5: Flag-Wts^Kinase (domain or fragment, UniProt Q9VA38 719-1020)
chain: FVKLKPIGVGAFGEVTLVSKIDTSNHLYAMKTLRKADVLKRNQVAHVKAERDILAEADNNWVVKLYYSFQDKDNLYFVMDYIPGGDLMSLLIKLGIFEEELARFYIAEVTCAVDSVHKMGFIHRDIKPDNILIDRDGHIKLTDFGLCTGFRWTHNSKYYQENGNHSRQDSMEPWEEYSENGPKPTVLERRRMRDHQRVLAHSLVGTPNYIAPEVLERSGYTQLCDYWSVGVILYEMLVGQPPFLANSPLETQQKVINWEKTLHIPPQAELSREATDLIRRLCASADKRLGKSVDEVKSHDFF
binding [7]: binds

B6: Flag-Mahj^HLH+WD40 (domain or fragment, UniProt Q9W2F2 1096-1447)
chain: LYEPHKCPDPKPSRLLSSNYNLTSRHARTQAGFNTSRFDRRYVHTHFSPWRSIRSADYEDLEFTCCDLAGKYIIVGTQQGDGRVFNMNDGVEQFFSNCHNFSVDAIKANRAGDLVITSSFWRTPTSILWSIADDEFKLKLRLPDVTYCEFSQTVQDRLLGTQNECATLFDINTGSKVASFTPTIPNLYTKNRATLCRTDELILSDGVLWDVRSGKEIHKFDKFNQCISGVFHPNCLEIIANTEVWDLRTFHLLQTVPVLDQRNCTFSPMHVIYGASLGADRDHDMETTTYDTSFNVLDAYDYSSIATIDVKRNINDLSVSANGSLIAVVEDYSGYESKQETYVKIYAVGVKK
binding [1]: binds

B7: Myc-Mahj^HLH+WD40 (domain or fragment, UniProt Q9W2F2 1096-1447)
chain: LYEPHKCPDPKPSRLLSSNYNLTSRHARTQAGFNTSRFDRRYVHTHFSPWRSIRSADYEDLEFTCCDLAGKYIIVGTQQGDGRVFNMNDGVEQFFSNCHNFSVDAIKANRAGDLVITSSFWRTPTSILWSIADDEFKLKLRLPDVTYCEFSQTVQDRLLGTQNECATLFDINTGSKVASFTPTIPNLYTKNRATLCRTDELILSDGVLWDVRSGKEIHKFDKFNQCISGVFHPNCLEIIANTEVWDLRTFHLLQTVPVLDQRNCTFSPMHVIYGASLGADRDHDMETTTYDTSFNVLDAYDYSSIATIDVKRNINDLSVSANGSLIAVVEDYSGYESKQETYVKIYAVGVKK
binding [4]: binds
